From article PMC6933394
No constants are given. Whether binding was seen depends on the method and setting. Binding seen in cells or lysates may run through a third protein. Some binding calls cover weakened binding; strength is not graded here.

Protein sequences, listed by entry. Tags and fused reporters are not part of them. Lines headed by an entry give the natural chain unless they say otherwise; changes in a name come on top.
UniProt Q14457: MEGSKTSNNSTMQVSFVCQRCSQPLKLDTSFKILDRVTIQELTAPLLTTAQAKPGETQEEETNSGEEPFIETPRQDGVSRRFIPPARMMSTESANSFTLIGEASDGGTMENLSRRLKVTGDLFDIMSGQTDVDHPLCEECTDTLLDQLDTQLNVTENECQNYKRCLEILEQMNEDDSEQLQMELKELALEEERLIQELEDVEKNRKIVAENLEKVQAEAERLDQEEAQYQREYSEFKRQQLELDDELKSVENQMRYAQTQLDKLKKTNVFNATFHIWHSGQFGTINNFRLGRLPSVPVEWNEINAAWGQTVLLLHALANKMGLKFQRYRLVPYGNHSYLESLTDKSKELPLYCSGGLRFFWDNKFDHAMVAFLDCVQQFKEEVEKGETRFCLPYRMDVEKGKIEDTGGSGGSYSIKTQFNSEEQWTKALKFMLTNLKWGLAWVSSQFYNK
UniProt P63104: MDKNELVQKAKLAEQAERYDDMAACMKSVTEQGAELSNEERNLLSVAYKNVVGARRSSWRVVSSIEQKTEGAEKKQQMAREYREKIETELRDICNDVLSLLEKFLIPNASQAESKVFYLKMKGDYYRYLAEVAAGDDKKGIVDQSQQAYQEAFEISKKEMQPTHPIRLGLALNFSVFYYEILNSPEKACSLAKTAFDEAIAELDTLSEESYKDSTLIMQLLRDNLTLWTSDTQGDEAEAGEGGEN

Legend:
[1] = target: beclin 1 (human (endogenous in HCC-LM3 and CSQT-2)) (UniProt Q14457); assay: co-IP; 200 μg cell protein of HCC‐LM3 or CSQT‐2 cells, anti‐beclin 1 antibody overnight, Protein A Agarose 2 hours, rinsed with 1x PBS; blot for 14‐3‐3ζ or VPS34; for VPS34 the cells were infected with n.c. oe‐LV or 14‐3‐3ζ oe‐LV
[2] = target: flag‐labelled beclin 1^S295 (human) (UniProt Q14457); assay: co-IP; CSQT‐2 cells transfected with flag‐labelled beclin 1; anti‐flag antibody for IP, Protein A Agarose, anti‐14‐3‐3ζ antibody for IB
[3] = target: flag‐labelled beclin 1^S295A (human) (UniProt Q14457); assay: as above

14‐3‐3ζ (from UniProt P63104 1-245)
binding [1]: binds
binding [2]: binds
binding [3]: binds weakly
